{"source": "paper PMC11905058", "about": "“Novel Leech Antimicrobial Peptides, Hirunipins: Real‐Time 3D Monitoring of Antimicrobial and Antibiofilm Mechanisms Using Optical Diffraction Tomography” (Advanced Science, 2025)", "key": {"E. coli (KCTC 1682)": {"test_system": "E. coli (KCTC 1682)", "assay": "Multipassage drug resistance study", "assay_type": "cell-based, Escherichia coli", "settings": "continuous exposure at sub-MIC (0.5×MIC)", "procedure": "The MICs of hirunipin 2 and antibiotics were determined, and the concentration of each sub‐MIC (0.5×MIC) of E. coli (KCTC 1682) was diluted to 1 × 10^6 CFU mL^−1 with MHB for the next passaged MIC determination. This procedure was repeated fifteen times. Ciprofloxacin and tetracycline were used as the controls."}, "MDRAB (329-53)": {"test_system": "MDRAB (329-53)", "settings": "antibiotic in combination with hirunipin 2", "procedure": "Synergy testing by checkerboard assay: Briefly, each 96-well microtiter plate was inoculated with two-fold serial dilutions of two antibiotics, ranging from 1/8 MIC to 2 MIC, such that one antibiotic was inoculated in the columns and the other in the rows. Then, MDRAB (329-53) cells were inoculated at a concentration of 1× 10^6 CFU/mL. The plates were incubated overnight under static conditions and observed visually."}}}
{"compound": "O=C(O)c1cn(C2CC2)c2cc(N3CCNCC3)c(F)cc2c1=O", "note": "[CIP, Ciprofloxacin]", "values": [{"measurement": "fold-change in the MICs after 15 passages", "setting": "E. coli (KCTC 1682)", "result": 4096, "unit": "fold"}, {"measurement": "FICI: fractional inhibitory concentration index, FICA + FICB", "setting": "MDRAB (329-53)", "result": 0.3125}]}
